From PubChem BioAssay AID1117319 (Southern Research Institute, 2015)
The campaign covered roughly 260,000 compounds. About 1,500 (0.58%) were called active. The shares of active, inactive and inconclusive entries below differ from those in the screen.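 Rule for the calls: active = inhibition above a set limit at one or more doses, reproduced on every date tested; inconclusive = results disagree between test dates, or hit never tested in dose response; inactive = the rest.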

Sequences of proteins named here, by UniProt entry; tags and fusion partners are left off. A change or cut given only in a name is not applied to a line headed by its entry.
UniProt P69720: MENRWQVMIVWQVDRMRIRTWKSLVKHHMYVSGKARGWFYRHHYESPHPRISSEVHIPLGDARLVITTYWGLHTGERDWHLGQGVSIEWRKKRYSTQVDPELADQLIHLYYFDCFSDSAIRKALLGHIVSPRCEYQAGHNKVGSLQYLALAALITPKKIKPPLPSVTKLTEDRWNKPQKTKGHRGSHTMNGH
UniProt P69721: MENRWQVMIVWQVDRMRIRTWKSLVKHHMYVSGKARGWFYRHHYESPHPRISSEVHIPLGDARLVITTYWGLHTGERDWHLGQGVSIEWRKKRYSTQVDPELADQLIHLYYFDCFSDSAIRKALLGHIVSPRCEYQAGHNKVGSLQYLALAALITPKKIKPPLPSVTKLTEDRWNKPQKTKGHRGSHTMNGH
UniProt P69722: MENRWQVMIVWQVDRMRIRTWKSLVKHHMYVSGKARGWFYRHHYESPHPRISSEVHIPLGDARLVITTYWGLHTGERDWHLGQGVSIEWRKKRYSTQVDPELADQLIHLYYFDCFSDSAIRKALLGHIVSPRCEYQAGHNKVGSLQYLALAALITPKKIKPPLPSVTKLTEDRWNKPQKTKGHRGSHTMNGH
UniProt P69723: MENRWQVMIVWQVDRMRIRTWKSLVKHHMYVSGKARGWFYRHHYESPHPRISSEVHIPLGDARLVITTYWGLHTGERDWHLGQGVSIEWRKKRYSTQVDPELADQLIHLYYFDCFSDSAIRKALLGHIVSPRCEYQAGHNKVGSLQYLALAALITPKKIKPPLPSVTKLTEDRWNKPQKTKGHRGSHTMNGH
UniProt Q9HC16: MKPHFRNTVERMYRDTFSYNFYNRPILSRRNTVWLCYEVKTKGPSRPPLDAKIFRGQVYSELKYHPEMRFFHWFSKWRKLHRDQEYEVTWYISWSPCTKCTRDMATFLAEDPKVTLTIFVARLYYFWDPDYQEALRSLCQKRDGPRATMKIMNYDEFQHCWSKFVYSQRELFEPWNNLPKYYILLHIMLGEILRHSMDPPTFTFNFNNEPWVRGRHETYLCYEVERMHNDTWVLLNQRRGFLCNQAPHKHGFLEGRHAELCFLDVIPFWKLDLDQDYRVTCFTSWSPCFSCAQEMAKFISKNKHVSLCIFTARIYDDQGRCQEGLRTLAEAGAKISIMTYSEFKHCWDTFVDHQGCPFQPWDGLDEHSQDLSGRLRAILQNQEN

Each molecule was assayed against Virion infectivity factor (Human immunodeficiency virus type 1 group M subtype B (isolate BH10)) + Virion infectivity factor (Human immunodeficiency virus type 1 group M subtype B (isolate BRU/LAI)) + Virion infectivity factor (Human immunodeficiency virus type 1 group M subtype B (isolate PCV12)) + Virion infectivity factor (Human immunodeficiency virus type 1 group M subtype B (isolate HXB2)) + DNA dC->dU-editing enzyme APOBEC-3G (Homo sapiens) (UniProt P69720+P69721+P69722+P69723+Q9HC16) (assay: inhibitors of Vif binding to APOBEC3G peptide, primary screen, biochemical, TR-FRET, GST-Vif 1-94, biotin-A3G peptide, dose response retest (AID 1117319;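 note: Vif residues 1-94 fused to GST binding biotinylated APOBEC3G peptide 110-148; 0% = full assay without inhibitor and 100% = GST in place of GST-Vif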)). Details: active compounds read high.

Structure (SMILES) | inhibition
CCOc1cc(N2CCOCC2)c(OCC)cc1NC(=O)c1ccc(C)cc1 | inconclusive: 39.1%
CCc1cc2cccc(C)c2nc1SCC(=O)Nc1nonc1C | inactive: 32.8%
Nc1cc(=O)nc(SCC(=O)NC2CCCCC2)n1-c1ccccc1 | inactive: -0.99%
CCN(c1ccccc1)S(=O)(=O)c1ccc(OC)c(NC(=O)CN(C)C)c1 | inconclusive: 59.4%
CC(=O)N1CCn2c3c(c(=O)c4cc(C)ccc42)CCC31 (configuration not stated) | inconclusive: 42.7%
COC(=O)c1ccc(NC(=O)CN2C(=O)C3C4C=CC(C4)C3C2=O)cc1 (configuration not stated) | inconclusive: 33.6%
CC12CC3(C)CC(C)(C1)CC(NC(=O)N1CCCC1)(C2)C3 | inconclusive: 38.1%
CC(=O)Nc1ccc(N2C(=O)CC(Sc3nc(C)cc(C)n3)C2=O)cc1 (configuration not stated) | inactive: 2.02%
Cc1ccccc1NC(=O)Nc1nnc(CC(=O)NCc2ccccc2)s1 | inconclusive: 38.7%
O=c1oc2ccccc2c(NCc2ccccc2F)c1[N+](=O)[O-] | inconclusive: 45.6%
CCCOc1ccc(-c2nnn(CC(=O)N3CCC(C)CC3)n2)cc1 | inconclusive: 44.6%
Cc1ccc(OCC(=O)Nc2ccc(N(C)C)cc2)cc1 | inconclusive: 56%
OC(CCN1CCCC1)(c1ccccc1)C1CCCCC1 (configuration not stated) | inconclusive: 56.5%
CC(C)c1ccc(NC(=O)c2cc(S(=O)(=O)NCC3COc4ccccc4O3)ccc2F)cc1 (configuration not stated) | inconclusive: 37.3%
COc1cc2[nH]c3c(Cl)ncnc3c2cc1OC | inactive: -0.29%
CC(CN(C)C)CN1c2ccccc2CCc2ccccc21 (configuration not stated) | inconclusive: 36.1%
COC(=O)c1ccc(C)c(NC(=O)CCSc2ccccc2)c1 | inconclusive: 78.7%
C(=N\C(/N=C/c1ccco1)c1ccco1)/c1ccco1 | inconclusive: 34.3%
C=CCN1C(=O)C(Cc2ccc(OC)cc2)S/C1=N/N=C/c1ccco1 (configuration not stated) | inconclusive: 60.6%
Cc1ccc(C)c(NC(=O)c2ccc3c(c2)N(Cc2ccc(F)cc2)C(=O)CS3=O)c1 (configuration not stated) | inconclusive: 51.2%
C=CCn1c(SCC(=O)NCC(=O)OCC)nnc1-c1ccccn1 | inconclusive: 51.2%
COc1ccc(-c2nnc(-c3cccnc3)o2)cc1OC | inconclusive: 49.8%

Structure (SMILES) | inhibition
CCCC(=O)Nc1ccc(C(=O)N/N=C2\CC(=O)CC(C)(C)C2)cc1 | inconclusive: 37.6%
CC(C)(C)c1ccc(C(=O)Nc2nonc2-c2nc3ccccc3[nH]2)cc1 | inconclusive: 45.7%
CCOC(=O)c1c(C)[nH]c(C2=NNC(=Nc3cccc(Cl)c3)SC2)c1C | inconclusive: 65%
N#CCSc1nnc(COc2cccc3ccccc23)n1-c1ccccc1 | inconclusive: 39.4%
CCOC(=O)c1sc(NC(=O)Nc2ccc(F)cc2)nc1C | inactive: 24.7%
COc1ccc(CCn2c(NN=C3CCCC3)nc3c2c(=O)[nH]c(=O)n3C)cc1 | inconclusive: 40.5%
CCC(C(=O)OCC(=O)Nc1ccc(Cl)c(S(=O)(=O)N(C)C)c1)c1ccccc1 (configuration not stated) | inconclusive: 34.9%
Cc1cc(C)n2c(=O)c3ccc(Cl)cc3nc2c1C#N | inconclusive: 45.2%
Cc1csc(NC(=O)c2ccc(C)c([N+](=O)[O-])c2)n1 | inconclusive: 41.3%
Cc1occc1C(=O)Nc1cc(=O)n(C)c(=O)n1C | inconclusive: 59.8%
C=C(C)CCOC(=O)C(CC(=O)O)NCc1ccco1 (configuration not stated) | inconclusive: 53.9%
CN1CCN(C(=O)Nc2cccc(-c3ccccc3)c2)CC1 | inconclusive: 50.6%
CN(C)S(=O)(=O)c1cccc(-n2sc3ccccc3c2=O)c1 | inconclusive: 49.6%
Cc1sc2nc(C)n(/N=C/N(C)C)c(=O)c2c1C | inconclusive: 49.5%
O=c1c(F)cn(C2CCCO2)c(=O)n1Cc1ccccc1F (configuration not stated) | inconclusive: 49%
O=C(Cc1n[nH]c(=O)c2ccccc12)OCC(=O)c1ccc2c(c1)OCCO2 | inconclusive: 6.03%
CCSC1=C(C#N)C(c2ccccc2Cl)C(C(=O)c2cccs2)C(O)(C(F)(F)F)N1 (configuration not stated) | inconclusive: 48.9%
NC(=O)c1ccc[n+](Cc2ccc(-c3ccccc3)cc2)c1 | inactive: 8.95%
Cn1c(=O)[nH]c(=O)c2c1nc(N(CCO)Cc1ccccc1)n2CCCc1ccccc1 | inconclusive: 38.5%
CC(=O)c1ccc(NC2c3ncccc3C(=O)N2Cc2ccc(F)cc2)cc1 (configuration not stated) | inconclusive: 45.6%
O=C(c1cccs1)N1CCN(Cc2nc3ccccc3c(=O)[nH]2)CC1 | inconclusive: 38%
CCOc1ccc(-c2nnc(SCc3nnc(-c4ccccc4)o3)n2-c2ccccc2F)cc1 | inconclusive: 58.9%

Structure (SMILES) | inhibition
COc1ccc(CNC(=O)c2ccc(=O)oc2)cc1OC | inconclusive: 31%
O=C(CCNS(=O)(=O)c1ccc(Br)cc1)NCCc1ccccc1 | inactive: -1.9%
O=C(NCc1ccc(/C=c2\sc3n(c2=O)CCN=3)o1)C(=O)Nc1ccccc1 | inactive: -17%
CCC(Sc1nc2n[nH]c(C)c2c(=N)n1-c1cccc(Cl)c1C)C(=O)N(CC)CC (configuration not stated) | inconclusive: 50.5%
C[C@@H](O)C1NC(=O)[C@H](CCCCN)NC(=O)c2cc([N+](=O)[O-])cc(F)c2NCCCC[C@@H](C(N)=O)NC1=O (some centres not stated) | inconclusive: 43.5%
Cn1c(-c2ccc(Cl)cc2)cnc1N | inconclusive: 18%
O=C(/C=C/c1ccc(F)cc1)Nc1cccc(S(=O)(=O)N2CCOCC2)c1 | inactive: -3.16%
CC1(C)CC(NC(=O)C2CCN(S(=O)(=O)c3cccc(C(F)(F)F)c3)CC2)CC(C)(C)N1 | inconclusive: 54.7%
O=C(NCc1ccccc1)C1CC(=O)N(c2ccc(OCC(=O)N3CCCC3)cc2)C1 (configuration not stated) | inconclusive: 42.5%
CC1(C)CC(=O)C=C(c2n[nH]nc2-c2ccc(F)c(F)c2)C1 | inactive: -13.9%
NS(=O)(=O)c1ccc(N/N=C2/CCCc3ccccc32)c([N+](=O)[O-])c1 | inconclusive: 39.2%
C=C(C)CSc1nc(N)cc(=O)[nH]1 | inconclusive: 39%
Cc1cccc(NC(=O)C2CCN(S(=O)(=O)c3c(C)noc3/C=C/c3ccco3)CC2)n1 | inconclusive: 41%
O=C(O)COc1ccc(=O)n(-c2ccccc2)n1 | inconclusive: 41.2%
COc1cc(C(=S)N2CCN(c3ccccc3Cl)CC2)cc(O)c1O | inconclusive: 59.2%
Cc1cc(NC(=O)c2ccc(NC(=O)c3cccs3)cc2)no1 | inconclusive: 56.6%
O=C(c1cnn2c(C(F)(F)F)cc(-c3ccccc3)nc12)N1CCCc2ccccc21 | inconclusive: 36.2%
O=C(CSc1ccc(-c2ccco2)nn1)c1cccc([N+](=O)[O-])c1 | inconclusive: 33.1%
CCCNc1nc2c(c(=O)n(C)c(=O)n2C)n1Cc1ccc(F)cc1 | inconclusive: 40.5%
COc1cccc(-c2nnc3sc(-c4ccc(C)cc4)nn23)c1 | inconclusive: 61.3%
CCC(=O)OCCNc1cc(Sc2nccn2C)c2nonc2c1[N+](=O)[O-] | inactive: -4.53%
CCOC(=O)C1=C(CNCCc2ccc(Cl)cc2)NC(=O)NC1c1cccc([N+](=O)[O-])c1 (configuration not stated) | inconclusive: 54.8%

Structure (SMILES) | inhibition
CCOC(=O)N1CCN(Cc2nc3c(c(=O)n(C)c(=O)n3C)n2CCC(C)C)CC1 | inconclusive: 53.8%
Cc1oc(CC(C)C)c(CN)c1C(=O)O | inconclusive: 53.3%
CCCCN(C(=O)CSc1cc(C)c2ccc(OC)cc2n1)c1c(N)n(Cc2ccccc2)c(=O)[nH]c1=O | inconclusive: 42.5%
Cc1ccccc1N/C(SCc1ccc(Cl)cc1)=C(/C#N)C(=O)NCc1ccco1 | inconclusive: 49.9%
O=C(NC(=S)NNC(=O)c1ccccc1O)c1ccco1 | inconclusive: 54%
CC(C)C(NC(=O)c1ccco1)C(=O)OCC(=O)Nc1ccc(C(N)=O)cc1 (configuration not stated) | inconclusive: 43%
O=C(Nc1ccccc1C(=O)N/N=C/c1ccc(O)cc1)c1ccccc1 | inconclusive: 38.4%
COc1cc(C(=O)Nc2ccc(S(=O)(=O)N(C)c3ccccc3)cc2)cc(OC)c1OC | inconclusive: 41.3%
Cc1ccc(CCNC(=O)C2CCN(S(=O)(=O)c3cccc4nonc34)CC2)cc1 | inconclusive: 46.5%
COc1ccc(N2CCN(S(=O)(=O)c3ccc(C(=O)NCc4ccco4)cc3)CC2)cc1 | inconclusive: 47.5%
O=C(CSc1nnc(CCCO)n1-c1ccccc1)Nc1nccs1 | inactive: -0.69%
COc1ccc([C@H](C)NC[C@H](O)c2ccc(O)c(NC=O)c2)cc1 | inactive: 26%
O=C(CCC(=O)NNC(=O)c1ccc(Cl)cc1Cl)NCc1ccccc1 | inconclusive: 60.9%
CCOC(=O)C(C(=O)Nc1ccccn1)C1CCCCC1 (configuration not stated) | inconclusive: 33.3%
CC(C)n1cc(CN2CCCC(CO)(Cc3cccc(Cl)c3)C2)cn1 (configuration not stated) | inconclusive: 43.8%
COCCNC(=O)C1CC(c2ccc([N+](=O)[O-])cc2)=NO1 (configuration not stated) | inconclusive: 48.4%
COc1cccc(-c2nc(CS(=O)CC(=O)NC3CCCC3)c(C)o2)c1 (configuration not stated) | inconclusive: 43.9%
COc1ccc(-c2[nH]nc3oc(=O)c(CCO)c(C)c23)cc1 | inconclusive: 41.6%
O=C1CC(c2ccccc2Cl)=NN(c2ncnc3ccccc23)C1=O | inconclusive: 39.4%
Cc1ccc([C@H]2C(C#N)=C(N)Oc3cc(C)oc(=O)c32)o1 | inactive: 1.59%
COC(=O)c1sc(C(F)(F)F)c(-c2ccccc2)c1S(=O)(=O)NC(C)(C)C | inconclusive: 33.3%

Nothing new here: an excerpt of the list.
Structure (SMILES) | inhibition
CC(C)n1cc(CN2CCCC(CO)(Cc3cccc(Cl)c3)C2)cn1 (configuration not stated) | inconclusive: 43.8%
COCCNC(=O)C1CC(c2ccc([N+](=O)[O-])cc2)=NO1 (configuration not stated) | inconclusive: 48.4%
COc1cccc(-c2nc(CS(=O)CC(=O)NC3CCCC3)c(C)o2)c1 (configuration not stated) | inconclusive: 43.9%
COc1ccc(-c2[nH]nc3oc(=O)c(CCO)c(C)c23)cc1 | inconclusive: 41.6%
O=C1CC(c2ccccc2Cl)=NN(c2ncnc3ccccc23)C1=O | inconclusive: 39.4%
Cc1ccc([C@H]2C(C#N)=C(N)Oc3cc(C)oc(=O)c32)o1 | inactive: 1.59%
